The other results are listed elsewhere or left out.
Key:
Assay in all cases: log2 fold change, soluble protein after heating vs DMSO (PISA); higher = thermal stabilisation; K562 cells, 10 uM, 30 min; active = over 0.2 and 3.5 SD of the protein, either way, in both replicates (recomputed)
[1] = compound: CC[C@@H]1C(=O)N(C)c2cnc(Nc3ccc(C(=O)NC4CCN(C)CC4)cc3OC)nc2N1C1CCCC1
Procedure, shortened: (§1)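 For each measurement, 10 μM compound was applied for 30 min to K562 cells at 2×10^6 cells/mL. Aliquots were heated for 3 min across 48°C-58°C, pooled, and extracted in PBS with 0.5% NP-40 at 4°C; the supernatant after 21,000xg for 90 min was soluble protein. This was quantified by TMTpro 16plex LC-MS/MS with channel sums equalised, and thermal stability was reported relative to control samples from duplicates, on a log2 fold-change scale.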

Chains of the proteins cited; added tags and fusions are not shown. Lines headed by an entry give the natural chain unless they say otherwise; changes in a name come on top.
UniProt Q86WX3: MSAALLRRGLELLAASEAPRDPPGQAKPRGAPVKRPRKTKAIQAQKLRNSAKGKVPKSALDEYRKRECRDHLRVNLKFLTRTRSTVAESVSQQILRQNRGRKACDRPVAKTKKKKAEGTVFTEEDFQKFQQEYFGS
UniProt P31350, whole entry, looked up: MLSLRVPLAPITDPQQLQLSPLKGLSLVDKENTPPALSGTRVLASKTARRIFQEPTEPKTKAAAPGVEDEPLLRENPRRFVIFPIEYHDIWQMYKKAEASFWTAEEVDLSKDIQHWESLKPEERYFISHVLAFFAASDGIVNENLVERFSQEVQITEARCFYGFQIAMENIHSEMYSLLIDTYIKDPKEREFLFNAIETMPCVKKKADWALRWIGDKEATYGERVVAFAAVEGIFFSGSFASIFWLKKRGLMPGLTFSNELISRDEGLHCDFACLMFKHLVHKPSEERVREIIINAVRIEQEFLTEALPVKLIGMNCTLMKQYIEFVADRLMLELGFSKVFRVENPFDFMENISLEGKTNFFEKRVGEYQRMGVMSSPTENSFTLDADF
UniProt Q9BUL9: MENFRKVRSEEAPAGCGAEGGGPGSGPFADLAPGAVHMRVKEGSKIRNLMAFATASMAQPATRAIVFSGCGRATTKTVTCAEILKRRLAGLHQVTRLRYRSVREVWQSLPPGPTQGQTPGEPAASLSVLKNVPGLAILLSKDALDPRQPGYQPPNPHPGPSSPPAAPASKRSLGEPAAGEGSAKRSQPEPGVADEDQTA
UniProt Q9BWH6: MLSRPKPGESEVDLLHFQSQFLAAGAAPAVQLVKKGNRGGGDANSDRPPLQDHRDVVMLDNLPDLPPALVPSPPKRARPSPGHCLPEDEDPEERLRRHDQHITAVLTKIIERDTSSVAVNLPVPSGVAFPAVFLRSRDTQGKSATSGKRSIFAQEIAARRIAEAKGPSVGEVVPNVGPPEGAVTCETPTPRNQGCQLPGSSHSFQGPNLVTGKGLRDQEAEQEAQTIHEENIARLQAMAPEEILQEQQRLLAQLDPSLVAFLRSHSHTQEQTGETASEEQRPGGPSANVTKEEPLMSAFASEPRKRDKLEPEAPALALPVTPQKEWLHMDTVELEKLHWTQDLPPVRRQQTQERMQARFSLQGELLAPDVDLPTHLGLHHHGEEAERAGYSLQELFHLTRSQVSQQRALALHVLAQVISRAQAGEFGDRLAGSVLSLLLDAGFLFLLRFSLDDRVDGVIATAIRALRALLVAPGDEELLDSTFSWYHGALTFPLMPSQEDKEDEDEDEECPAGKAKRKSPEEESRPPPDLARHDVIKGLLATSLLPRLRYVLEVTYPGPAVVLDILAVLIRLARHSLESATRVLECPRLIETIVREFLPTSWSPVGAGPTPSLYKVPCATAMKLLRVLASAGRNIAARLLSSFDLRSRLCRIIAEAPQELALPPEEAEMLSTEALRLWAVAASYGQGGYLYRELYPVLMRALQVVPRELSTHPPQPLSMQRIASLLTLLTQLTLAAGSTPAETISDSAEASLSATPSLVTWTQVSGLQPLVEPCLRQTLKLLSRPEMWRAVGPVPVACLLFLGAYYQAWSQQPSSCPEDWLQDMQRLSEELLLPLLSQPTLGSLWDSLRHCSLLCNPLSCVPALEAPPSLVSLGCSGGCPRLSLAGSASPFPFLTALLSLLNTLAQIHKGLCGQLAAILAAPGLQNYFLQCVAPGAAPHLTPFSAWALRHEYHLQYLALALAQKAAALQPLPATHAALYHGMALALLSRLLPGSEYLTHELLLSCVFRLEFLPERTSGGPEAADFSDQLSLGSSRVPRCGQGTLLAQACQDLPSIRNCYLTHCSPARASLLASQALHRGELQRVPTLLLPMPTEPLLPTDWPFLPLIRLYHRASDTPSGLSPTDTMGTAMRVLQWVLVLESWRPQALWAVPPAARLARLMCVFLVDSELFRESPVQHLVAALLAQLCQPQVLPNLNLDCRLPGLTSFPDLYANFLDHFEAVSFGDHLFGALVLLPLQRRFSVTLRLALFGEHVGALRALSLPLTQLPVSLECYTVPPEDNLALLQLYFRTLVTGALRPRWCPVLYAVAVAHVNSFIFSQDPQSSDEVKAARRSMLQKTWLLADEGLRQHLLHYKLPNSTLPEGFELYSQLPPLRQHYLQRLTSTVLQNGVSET
UniProt P04844: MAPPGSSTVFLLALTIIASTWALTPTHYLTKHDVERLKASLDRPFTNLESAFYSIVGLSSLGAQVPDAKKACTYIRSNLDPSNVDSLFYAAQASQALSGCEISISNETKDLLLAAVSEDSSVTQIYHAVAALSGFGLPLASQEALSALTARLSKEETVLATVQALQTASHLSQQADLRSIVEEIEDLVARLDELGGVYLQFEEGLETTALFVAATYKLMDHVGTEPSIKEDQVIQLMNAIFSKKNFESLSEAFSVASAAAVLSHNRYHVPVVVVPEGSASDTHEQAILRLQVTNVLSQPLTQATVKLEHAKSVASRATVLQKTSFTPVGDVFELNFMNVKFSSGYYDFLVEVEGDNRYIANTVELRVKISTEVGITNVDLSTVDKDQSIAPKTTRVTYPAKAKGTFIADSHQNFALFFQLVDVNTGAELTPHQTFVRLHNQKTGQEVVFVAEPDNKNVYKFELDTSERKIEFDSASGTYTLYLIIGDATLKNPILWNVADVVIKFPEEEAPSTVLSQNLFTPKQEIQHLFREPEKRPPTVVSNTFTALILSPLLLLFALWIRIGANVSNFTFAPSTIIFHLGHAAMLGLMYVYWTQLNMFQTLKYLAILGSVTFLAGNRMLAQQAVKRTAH
UniProt P78345: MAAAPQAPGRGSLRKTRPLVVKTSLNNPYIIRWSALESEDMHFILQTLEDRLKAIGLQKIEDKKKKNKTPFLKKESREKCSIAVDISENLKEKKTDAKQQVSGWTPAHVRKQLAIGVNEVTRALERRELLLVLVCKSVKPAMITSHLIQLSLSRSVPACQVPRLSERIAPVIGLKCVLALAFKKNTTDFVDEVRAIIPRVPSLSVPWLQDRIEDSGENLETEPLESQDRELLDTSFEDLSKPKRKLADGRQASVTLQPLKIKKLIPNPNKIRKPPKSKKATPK
UniProt Q92901: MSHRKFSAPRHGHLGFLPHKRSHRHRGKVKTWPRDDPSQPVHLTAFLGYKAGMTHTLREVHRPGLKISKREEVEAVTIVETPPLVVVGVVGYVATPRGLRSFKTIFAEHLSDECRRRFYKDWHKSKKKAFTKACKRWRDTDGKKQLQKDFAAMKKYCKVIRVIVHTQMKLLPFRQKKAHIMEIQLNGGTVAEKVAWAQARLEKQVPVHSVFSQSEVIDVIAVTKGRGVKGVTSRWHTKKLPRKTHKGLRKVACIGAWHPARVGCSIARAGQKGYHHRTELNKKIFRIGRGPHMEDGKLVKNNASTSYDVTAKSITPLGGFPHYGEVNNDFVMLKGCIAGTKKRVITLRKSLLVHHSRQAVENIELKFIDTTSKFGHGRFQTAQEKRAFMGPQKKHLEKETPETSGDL

volasertib = compound: CC[C@@H]1C(=O)N(C)c2cnc(Nc3ccc(C(=O)N[C@H]4CC[C@H](N5CCN(CC6CC6)CC5)CC4)cc3OC)nc2N1C(C)C [volasertib]
Procedure, shortened: as §1

[2] = compound: CC[C@H](C)N1C=C(C2=C(C=C(C=C21)C3=CN=C(C=C3)N4CCNCC4)C(=O)NCC5=C(C=C(NC5=O)C)C)C
Procedure, shortened: as §1

epoxomicin = compound: CC[C@H](C)[C@@H](C(=O)N[C@@H]([C@@H](C)O)C(=O)N[C@@H](CC(C)C)C(=O)[C@]1(CO1)C)NC(=O)[C@H]([C@@H](C)CC)N(C)C(=O)C [epoxomicin]
Procedure, shortened: as §1

[3] = compound: CCn1c(C(=O)N(C2CC2)C2CC2)cc2c3c(ncn3C)c(Nc3cc(C)n(C)n3)nc21
Procedure, shortened: as §1

[4] = compound: CCn1cc(-c2ccnc3[nH]c(-c4cccc(CN(C)C)c4)cc23)c(-c2ccc(NC(=O)N(C)C)cc2)n1
Procedure, shortened: as §1

[5] = compound: CN(C)CC(=O)Nc1ccc2[nH]c(=O)c3ccccc3c2c1
Procedure, shortened: as §1

rosiglitazone = compound: CN(CCOC1=CC=C(C=C1)C[C@H]2C(=O)NC(=O)S2)C3=CC=CC=N3 (racemic) [rosiglitazone]
Procedure, shortened: as §1

[6] = compound: CN1C2=C(C3=C1C(=O)N(N=C3)CC4=CC(=CC=C4)N)SC(=C2)S(=O)C
Procedure, shortened: as §1

[7] = compound: CN1CCC(CNc2ccc3ncc(-c4cccc(OC(F)(F)F)c4)n3n2)CC1
Procedure, shortened: as §1

saracatinib = compound: CN1CCN(CCOc2cc(OC3CCOCC3)c3c(Nc4c(Cl)ccc5c4OCO5)ncnc3c2)CC1 [saracatinib]
Procedure, shortened: as §1

sotrastaurin = compound: CN1CCN(c2nc(C3=C(c4c[nH]c5ccccc45)C(=O)NC3=O)c3ccccc3n2)CC1 [sotrastaurin]
Procedure, shortened: as §1

alvocidib = compound: CN1CC[C@H](c2c(O)cc(O)c3c(=O)cc(-c4ccccc4Cl)oc23)[C@H](O)C1 [alvocidib]
Procedure, shortened: as §1

Tubastatin A = compound: CN1CCc2c(c3ccccc3n2Cc2ccc(C(=O)NO)cc2)C1 [Tubastatin A]
Procedure, shortened: as §1

[8] = compound: CNC(=O)C1=CC=CC=C1NC2=NC(=NC=C2Cl)NC3=C(C=C(C=C3)N4CCOCC4)OC
Procedure, shortened: as §1

defactinib = compound: CNC(=O)c1ccc(Nc2ncc(C(F)(F)F)c(NCc3nccnc3N(C)S(C)(=O)=O)n2)cc1 [defactinib]
Procedure, shortened: as §1

rucaparib = compound: CNCc1ccc(-c2[nH]c3cc(F)cc4c3c2CCNC4=O)cc1 [rucaparib]
Procedure, shortened: as §1

[9] = compound: CNc1nc(-c2ccc3c(N)n[nH]c3c2)cc(N2C[C@@H](C(=O)NC3CCCCC3)CC[C@H]2C)n1
Procedure, shortened: as §1

encorafenib = compound: COC(=O)N[C@@H](C)CNc1nccc(-c2cn(C(C)C)nc2-c2cc(Cl)cc(NS(C)(=O)=O)c2F)n1 [encorafenib]
Procedure, shortened: as §1

[10] = compound: COC(=O)[C@H](CCSC)NC(=O)C1=C(C=C(C=C1)NC[C@H](CS)N)C2=CC=CC=C2
Procedure, shortened: as §1

Measured: log2 fold change

RPL5 (UniProt P46777)
inactive: [1] 0.135 | volasertib 0.318 | [2] 0.004 | epoxomicin -0.254 | [3] -0.023 | [4] 0.146 | [5] -0.099 | rosiglitazone -0.111 | [6] 0.248 | [7] 0.212 | saracatinib -0.035 | sotrastaurin -0.014 | alvocidib 0.223 | Tubastatin A 0.085 | [8] 0.051 | defactinib 0.238 | rucaparib 0.298 | [9] 0.102 | encorafenib 0.118 | [10] -0.004

RPL12 (UniProt P30050)
inactive: [1] 0.267 | volasertib 0.696 | [2] -0.061 | epoxomicin -0.627 | [3] 0.036 | [4] 0.3 | [5] -0.205 | rosiglitazone -0.343 | [6] 0.517 | [7] 0.444 | saracatinib -0.117 | sotrastaurin -0.005 | alvocidib 0.401 | Tubastatin A 0.193 | [8] -0.03 | defactinib 0.522 | rucaparib 0.429 | [9] 0.202 | encorafenib 0.205 | [10] 0.075

RPS19BP1 (UniProt Q86WX3)
inactive: [1] 0.148 | volasertib 0.239 | [2] -0.052 | epoxomicin -0.086 | [3] 0.192 | [4] 0.171 | [5] -0.101 | rosiglitazone 0.021 | [6] 0.211 | [7] 0.189 | saracatinib -0.048 | sotrastaurin -0.048 | alvocidib 0.242 | Tubastatin A 0.053 | [8] -0.046 | defactinib 0.088 | rucaparib 0.222 | [9] 0.176 | encorafenib 0.167 | [10] -0.067

RPL8 (UniProt P62917)
inactive: [1] 0.253 | volasertib 0.767 | [2] -0.035 | epoxomicin -0.68 | [3] 0.006 | [4] 0.437 | [5] -0.284 | rosiglitazone -0.332 | [6] 0.57 | [7] 0.506 | saracatinib -0.215 | sotrastaurin -0.043 | alvocidib 0.485 | Tubastatin A 0.224 | [8] -0.006 | defactinib 0.636 | rucaparib 0.439 | [9] 0.248 | encorafenib 0.216 | [10] 0.003

RPL10 (UniProt P27635)
inactive: [1] 0.219 | volasertib 0.63 | [2] 0.013 | epoxomicin -0.317 | [3] 0.006 | [4] 0.174 | [5] -0.192 | rosiglitazone -0.229 | [6] 0.339 | [7] 0.273 | saracatinib -0.125 | sotrastaurin -0.018 | alvocidib 0.328 | Tubastatin A 0.112 | [8] 0.078 | defactinib 0.427 | rucaparib 0.389 | [9] 0.213 | encorafenib 0.191 | [10] 0.001

RRM2 isoform 2 (UniProt P31350)
inactive: [1] 0.061 | volasertib 0.075 | [2] -0.018 | epoxomicin 0.077 | [3] 0.011 | [4] -0.04 | [5] -0.006 | rosiglitazone 0.012 | [6] -0.113 | [7] 0.001 | saracatinib 0.047 | sotrastaurin 0.008 | alvocidib -0.048 | Tubastatin A -0.015 | [8] -0.002 | defactinib 0.015 | rucaparib -0.088 | [9] 0.013 | encorafenib -0.002 | [10] 0.039

RPP25 (UniProt Q9BUL9)
inactive: [1] 0.05 | volasertib 0.129 | [2] -0.003 | epoxomicin -0.017 | [3] -0.011 | [4] 0.091 | [5] -0.047 | rosiglitazone 0.016 | [6] -0.048 | [7] -0.068 | saracatinib -0.016 | sotrastaurin 0.042 | alvocidib 0.019 | Tubastatin A -0.006 | [8] 0.004 | defactinib -0.041 | rucaparib 0.099 | [9] -0.051 | encorafenib 0.03 | [10] 0.021

RPAP1 (UniProt Q9BWH6)
inactive: [1] -0.06 | volasertib -0.119 | [2] 0.05 | epoxomicin 0.007 | [3] -0.019 | [4] -0.071 | [5] 0.014 | rosiglitazone 0.007 | [6] -0.054 | [7] -0.127 | saracatinib 0.01 | sotrastaurin 0.028 | alvocidib -0.076 | Tubastatin A 0.029 | [8] -0.016 | defactinib -0.12 | rucaparib 0.007 | [9] 0.025 | encorafenib -0.013 | [10] -0.025

RPS27 (UniProt P42677)
inactive: [1] 0.134 | volasertib 0.223 | [2] 0.037 | epoxomicin -0.144 | [3] -0.001 | [4] 0.029 | [5] -0.01 | rosiglitazone -0.008 | [6] 0.057 | [7] -0.075 | saracatinib -0.066 | sotrastaurin -0.038 | alvocidib 0.061 | Tubastatin A 0.132 | [8] 0.081 | defactinib 0.201 | rucaparib 0.24 | [9] 0.072 | encorafenib 0.039 | [10] -0.023

RPL7 (UniProt P18124)
inactive: [1] 0.298 | volasertib 0.85 | [2] 0 | epoxomicin -0.726 | [3] 0.073 | [4] 0.389 | [5] -0.304 | rosiglitazone -0.343 | [6] 0.505 | [7] 0.443 | saracatinib -0.195 | sotrastaurin -0.042 | alvocidib 0.472 | Tubastatin A 0.276 | [8] 0.063 | defactinib 0.679 | rucaparib 0.506 | [9] 0.246 | encorafenib 0.252 | [10] -0.013

RPN2 (UniProt P04844)
inactive: [1] 0.02 | volasertib -0.035 | [2] 0.016 | epoxomicin 0.004 | [3] 0.009 | [4] 0.005 | [5] 0.005 | rosiglitazone 0.022 | [6] -0.006 | [7] 0.032 | saracatinib 0.011 | sotrastaurin 0.006 | alvocidib -0.003 | Tubastatin A 0.016 | [8] -0.01 | defactinib 0.009 | rucaparib -0.027 | [9] -0.001 | encorafenib 0.052 | [10] 0

RPP38 (UniProt P78345)
inactive: [1] 0.071 | volasertib 0.111 | [2] 0.008 | epoxomicin 0.017 | [3] -0.052 | [4] 0.035 | [5] -0.047 | rosiglitazone -0.009 | [6] 0.006 | [7] 0.058 | saracatinib 0.027 | sotrastaurin -0.016 | alvocidib 0.028 | Tubastatin A 0.045 | [8] 0.02 | defactinib -0.008 | rucaparib -0.003 | [9] 0.008 | encorafenib 0.03 | [10] 0.008

RPS23 (UniProt P62266)
inactive: [1] 0.214 | volasertib 0.551 | [2] 0.009 | epoxomicin -0.356 | [3] 0.004 | [4] 0.217 | [5] -0.153 | rosiglitazone -0.163 | [6] 0.333 | [7] 0.267 | saracatinib -0.133 | sotrastaurin -0.042 | alvocidib 0.4 | Tubastatin A 0.135 | [8] 0.056 | defactinib 0.539 | rucaparib 0.317 | [9] 0.156 | encorafenib 0.146 | [10] 0.053

RPL34 (UniProt P49207)
inactive: [1] 0.275 | volasertib 0.772 | [2] -0.014 | epoxomicin -0.813 | [3] 0.073 | [4] 0.327 | [5] -0.236 | rosiglitazone -0.374 | [6] 0.532 | [7] 0.486 | saracatinib -0.172 | sotrastaurin 0.026 | alvocidib 0.46 | Tubastatin A 0.191 | [8] 0.099 | defactinib 0.528 | rucaparib 0.435 | [9] 0.276 | encorafenib 0.205 | [10] -0.059

RPL3L (UniProt Q92901)
inactive: [1] 0.305 | volasertib 0.817 | [2] -0.002 | epoxomicin -0.887 | [3] 0.127 | [4] 0.337 | [5] -0.304 | rosiglitazone -0.302 | [6] 0.516 | [7] 0.397 | saracatinib -0.194 | sotrastaurin -0.049 | alvocidib 0.492 | Tubastatin A 0.141 | [8] 0.1 | defactinib 0.68 | rucaparib 0.45 | [9] 0.24 | encorafenib 0.268 | [10] -0.047

Three successive records already listed, quoted:
RPL7 (UniProt P18124)
inactive: [1] 0.298 | volasertib 0.85 | [2] 0 | epoxomicin -0.726 | [3] 0.073 | [4] 0.389 | [5] -0.304 | rosiglitazone -0.343 | [6] 0.505 | [7] 0.443 | saracatinib -0.195 | sotrastaurin -0.042 | alvocidib 0.472 | Tubastatin A 0.276 | [8] 0.063 | defactinib 0.679 | rucaparib 0.506 | [9] 0.246 | encorafenib 0.252 | [10] -0.013

RPN2 (UniProt P04844)
inactive: [1] 0.02 | volasertib -0.035 | [2] 0.016 | epoxomicin 0.004 | [3] 0.009 | [4] 0.005 | [5] 0.005 | rosiglitazone 0.022 | [6] -0.006 | [7] 0.032 | saracatinib 0.011 | sotrastaurin 0.006 | alvocidib -0.003 | Tubastatin A 0.016 | [8] -0.01 | defactinib 0.009 | rucaparib -0.027 | [9] -0.001 | encorafenib 0.052 | [10] 0

RPP38 (UniProt P78345)
inactive: [1] 0.071 | volasertib 0.111 | [2] 0.008 | epoxomicin 0.017 | [3] -0.052 | [4] 0.035 | [5] -0.047 | rosiglitazone -0.009 | [6] 0.006 | [7] 0.058 | saracatinib 0.027 | sotrastaurin -0.016 | alvocidib 0.028 | Tubastatin A 0.045 | [8] 0.02 | defactinib -0.008 | rucaparib -0.003 | [9] 0.008 | encorafenib 0.03 | [10] 0.008

Further records follow.

RPL23A (UniProt P62750)
inactive: [1] 0.152 | volasertib 0.41 | [2] 0.024 | epoxomicin -0.285 | [3] 0.037 | [4] 0.198 | [5] -0.118 | rosiglitazone -0.159 | [6] 0.277 | [7] 0.276 | saracatinib -0.117 | sotrastaurin -0.009 | alvocidib 0.276 | Tubastatin A 0.094 | [8] 0.061 | defactinib 0.307 | rucaparib 0.315 | [9] 0.133 | encorafenib 0.094 | [10] -0.018

From the supplement of paper PMC10849652
